# Assay results reported in US20240279302A1, “OLFACTORY RECEPTOR EXPRESSING METHOD AND RESPONSE MEASUREMENT METHOD” (Kao Corporation, priority 2021, published 2024).
# B1: consensus OR2A25 (b): consensus olfactory receptor polypeptide (protein)
# chain: MGGNQTSITEFLLLGFPVGPRIQMLLFGLFSLFYVFTLLGNGTILGLISLDSRLHTPMYFFLSHLAVVDIAYACNTVPQMLVNLLHPAKPISFAGCMTQTFLFLSFAHTECLLLVVMSYDRYVAICHPLRYSAIMTWRVCITLALTSWTLGVLLALIHLVLLLPLPFCRPQKINHFFCEIMAVLKLACADTHINEVMVLAGAISVLVGPLSSIVVSYMCILCAILKIQSGEGQRKAFSTCSSHLCVVGLFYGTAIIMYVGPQYGNPKEQKKYLLLFHSLFNPMLNPLIYSLRNSEVKNTLKRMLEKERAL
# modifications: OR2A25 consensus-b
# notes: consensus olfactory receptor polypeptide
# B2: consensus OR7D4 (c): consensus olfactory receptor polypeptide (protein)
# chain: MEAENHTEVSEFLLLGLSEDPELQPLLFGLFLSMYLVTVLGNLLIILAISSDSHLHTPMYFFLSNLSFVDICFISTTVPKMLVNIQAQSKDISYMGCLTQVYFFMIFAGMDNFLLTVMAYDRFVAICHPLHYTVIMNPRLCGLLVLASWFIIFWVSLVHILLMKRLTFCTGTEIPHFFCELAQVLKVACSDTLINNIVLYVATALLGVFPLTGILFSYSQIVSSLMRMSSTKGKYKAFSTCGSHLSVVSLFYGTGLGVYLSSAVTHSSQSSSIASVMYTVVTPMLNPFIYSLRNKDVKGALGRLLSRAASCP
# modifications: OR7D4 consensus-c
# notes: as for B1
# B3: consensus OR5AN1: consensus olfactory receptor polypeptide (protein)
# chain: MIGGGNITEITYFILLGFSDFPRIIAVLFVIFLVIYITTLTWNLSLIVLIRMDSHLHTPMYFFLSNLSFIDICYVTSTVPKMLSNFFQEQQTITFVGCIVQYFIFSTMGLSESCLMTAMAYDRYAAICNPLLYSSIMSPTLCVWMVLGSYMAGLTASLSQLCALLQLHFCGPNVIRHFFCDMPQLLILSCTDTFFVQVLTAILTMFFGIANALVIMISYGYIVISIMKITSAKGRSKAFNTCASHLTAVSLFYTSGIFVYLSSSSGGSSSFDRFASVFYTVVIPMLNPLIYSLRNKEIKDALKRLQKRKCC
# modifications: OR5AN1 consensus-c
# notes: as for B1
# B4: consensus OR4S2 (b): consensus olfactory receptor polypeptide (protein)
# chain: MEKINNVTEFIFWGLSQSPEVQRVCFVVFLFFYIAIVLGNLLIVLTVCLSNSLKSPMYFFLSFLSFVEICYSSVTAPKMIVDLLAKDKTISYVGCMLQLFFVHFFGCTEIFLLTVMAYDRYVAICKPLHYMTIMNRQTCNKLVLGTWVGGFLHSIIQVLLVVQLPFCGPNVIDHYFCDLHPVLKLACTDTFIVGVVVTANSGTIALGSFVILLISYSIILVSLRKQSAEGRRKALSTCGSHITVVILFFGPCIFMYMRPSTTFSEDKMVAVFYTIITPMLNPLIYTLRNAEVKNAMKKLWGRNVFLEAKGK
# modifications: OR4S2 consensus-b
# notes: as for B1
# B5: consensus OR7A17 (a): consensus olfactory receptor polypeptide (protein)
# chain: MEPENDTGISEFLLLGLSEEPELQPFLFGLFLSMYLVTVLGNLLIILATISDSHLHTPMYFFLSNLSFADICFISTTVPKMLINIQTQSRVITYAGCITQMCFFVLFGGLDSLLLAVMAYDRFVAICHPLHYTVIMNPRLCGLLVLASWMIAALNSLSQSLMVLWLSFCTDLEIPHFFCELNQVIHLACSDTFLNDMGMYFAAGLLAGGPLAGILYSYSKIVSSIRAISSAQGKYKAFSTCASHLSVVSLFCCTGLGVYLTSAATHNSHTSATASVMYTVATPMLNPFIYSLRNKDIKRALKMSFRGKQ
# modifications: OR7A17 consensus-a
# notes: as for B1
# B6: original M71: typical mouse olfactory receptor, SEQ ID NO: 483 (protein, listed as Mus musculus)
# chain: MTAENQSTVTEFILGGLTNRPELQLPLFLLFLGIYVVTMVGNLGMITLIGLNSQLHTPMYFFLSNLSLVDLCYSSVITPKMLINFVSQRNLISYVGCMSQLYFFLVFVIAECYMLTVMAYDRYVAICQPLLYNIIMSPALCSLLVAFVYAVGLIGSAIETGLMLKLNYCEDLISHYFCDILPLMKLSCSSTYDVEMAVFFLAGFDIIVTSLTVLISYAFILSSILRISSNEGRSKAFSTCSSHFAAVGLFYGSTAFMYLKPSTASSLAQENVASVFYTTVIPMFNPLIYSLRNKEVKTALDKTLRRKVF
# B7: consensus M71: consensus olfactory receptor polypeptide of mouse olfactory receptor M71 (protein)
# chain: MAAENHSTVTEFILGGLTNRPELQLPLFLLFLGIYVVTMVGNLGMITLIGLNSQLHTPMYFFLSNLSLVDLCYSSVITPKMLVNFVSQKNLISYVGCMSQLYFFLVFVIAECYMLTVMAYDRYVAICHPLLYNIIMSHALCSLLVAFVYAMGLIGSTIETGLMLKLNYCEDLISHYFCDILPLMKLSCSSTYDVEMAVFFLAGFNIIVTSLTVLISYAFILSSILRISSTEGRSKAFSTCSSHLAAVGLFYGSTAFMYLKPSTASSLAQENVASVFYTTVIPMLNPLIYSLRNKEVKAALQKTLRRKLF
# modifications: M71 consensus-c
# Test system: HEK293 cell membranes
# Assay: Measurement of olfactory receptor protein level on cell membrane (flow cytometry)
# Assay type: cell-based, human
# Settings: consensus design, HEK293 cells
row,Molecule,membrane expression level in comparison with the original olfactory receptor
1,B1,slightly increased
2,B2,slightly increased
3,B3,not found to increase its membrane expression level
4,B4,no increase in membrane expression level
5,B5,no increase in membrane expression level

# Same assay, conditions: mouse olfactory receptor M71 in HEK293 cells, 24 hours after transfection, mean±SEM, n=3
row,Molecule,membrane expression level (Cell surface expression (%)) [%]
1,B6,0.78±0.07
2,B7,3.20±0.19
